Assay: Plasma levels of Example 1 and mouse MCP-1 in the 48-hour TG peritonitis model
Assay type: in vivo
Conditions: hCCR-2 KI mice
Protocol: For the 48-hour TG peritonitis study, Example 1 was dosed twice a day with the first dose one hour prior to TG injection. Total peritoneal cell counts were obtained on isolated cells by a cell counter. Cytospins were performed to determine differential leukocyte counts. The cells were stained for 3 minutes with Wright-Giemsa Stain (Sigma-Aldrich) and then rinsed with deionized water for 5 minutes. Differential counts were calculated based on a total of 200 cells counted per sample. Blood was also collected from the retro-orbital sinus at the end of each study in EDTA for determination of drug concentration.
The caveat for this estimation is that only CCR-2 and its major ligand MCP-1 were taken into consideration. The receptor occupancy of a ligand in the presence of a competitive inhibitor is defined by the Gaddum equation: […]

## CC(=O)N[C@@H]1C[C@H](NC(C)(C)C)CC[C@@H]1N1CC[C@H](Nc2ncnc3cc(C(C)(C)C)nn23)C1=O [Example 1, N-((1R,2 S,5R)-5-(tert-Butylamino)-2-((S)-3-(7-tert-butylpyrazolo[1,5-a][1,3,5]triazin-4-ylamino)-2-oxopyrrolidin-1-yl)cyclohexyl)acetamide]
10 mg/kg oral BID
  Concentration of Mouse MCP-1 in plasma: 0.021 nM
50 mg/kg oral BID
  Concentration of Mouse MCP-1 in plasma: 0.048 nM
160 mg/kg oral BID
  Concentration of Mouse MCP-1 in plasma: 0.046 nM
200 mg/kg (different study), oral BID
  Concentration of Mouse MCP-1 in plasma: 0.068 nM

Source: US8618101B2, “N-((1R,2S,5R)-5-(tert-butylamino)-2-((S)-3-(7-tert-butylpyrazolo[1,5-a][1,3,5]triazin-4-ylamino)-2-oxopyrrolidin-1-yl)cyclohexyl)acetamide, a dual modulator of chemokine receptor activity, crystalline forms and processes” (Bristol-Myers Squibb Company, priority 2009, dated 2013)
